PubChem BioAssay AID652272 | Drosophila RNAi Screening Center | 2013

Purpose: 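Genome-wide knock-down search for components of Hedgehog signalling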 (primary screen)
Cells: Drosophila clone 8 (Cl8) cells
Reagents: long dsRNA against Drosophila genes
Measured: 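Plate reader light from a firefly reporter under a ptc promoter fragment that responds to Hedgehog, with Renilla light as transfection reference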
Scale: firefly Hh reporter signal: higher = more ptc reporter light; Renilla reference signal: higher = more Renilla control light
Rule for the call: 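Called a hit if the two-replicate mean z-score lies below -2 or above +3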
Calls: active = hit: reporter lowered or raised; inactive = not a hit
The screen tested about 21,000 reagents; shown is an unselected part of those with a known target gene and a result. Over the whole deposit, 503 (2.4%) got an active call. 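Raw plate light values, not normalised; calls rest on replicate z-scores that were not deposited; hits include reporter decreases as well as increases.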 A number with no mark means an inactive call. Not stated in the record: the amount of reagent, the time to read-out.

| gene | amplicon | firefly Hh reporter signal, replicate 1 | firefly Hh reporter signal, replicate 2 | firefly Hh reporter signal, replicate 3 | Renilla reference signal, replicate 1 | Renilla reference signal, replicate 2 |
| --- | --- | --- | --- | --- | --- | --- |
| CG6184 | DRSC15986 | 4.88e5 | 98577 | – | 27664 | 3805 |
| Xpac | DRSC18730 | 79061 | 2.05e5 | – | 2920 | 8269 |
| CG5953 | DRSC01546 | 81928 | 2.09e5 | – | 2642 | 9161 |
| CG5953 | DRSC02914 | 75308 | 26325 | – | 1603 | 1882 |
| Obp56g | DRSC06432 | 90242 | 42244 | – | 2336 | 2960 |
| beat-Ia | DRSC03489 | 82713 | 43123 | – | 1765 | 4354 |
| rogdi | DRSC10906 | 59264 | 75865 | – | 2525 | 2742 |
| CG8668 | DRSC03101 | 73760 | 64534 | – | 3365 | 2810 |
| Rpn7 | DRSC16841 | 25385 (active) | 19204 | – | 2643 | 2000 |
| CG5828 | DRSC02900 | 1.19e5 | 53632 | – | 3306 | 5073 |
| CG14491 | DRSC06462 | 93227 | 95830 | – | 1906 | 6498 |
| CG34404 | DRSC15335 | 84226 | 1.16e5 | – | 2139 | 2041 |
| CG34404 | DRSC15978 | 1.18e5 | 84417 | – | 4499 | 1613 |
| CG31882 | DRSC01084 | 6.56e5 | 2.40e5 | – | 31664 | 9952 |
| Sodh2 | DRSC16865 | 1.57e5 | 2.15e5 | – | 5545 | 6628 |
| RpL6 | DRSC14323 | 55251 (active) | 1.06e5 | – | 3996 | 10560 |
| Nubp2 | DRSC11758 | 1.17e5 | 98196 | – | 4721 | 2944 |
| drpr | DRSC08143 | 62209 | 35968 | – | 2273 | 2485 |
| drpr | DRSC08525 | 65088 | 42733 | – | 2034 | 3152 |
| CheA7a | DRSC17965 | 91485 | 3.35e5 | – | 2731 | 11692 |
| CG10492 | DRSC02064 | 33572 | 30091 | – | 1641 | 1351 |
| CG32191 | DRSC10522 | 97929 | – | – | 4054 | 2726 |
| CG1309 | DRSC08302 | 1.81e5 | 82903 | – | 5765 | 3216 |
| vg | DRSC07715 | 1.45e5 | 6.36e5 | 76565 | 2209 | 36935 |
| TwdlG | DRSC12229 | 1.12e5 | 1.54e5 | – | 4157 | 29442 |
| CG14903 | DRSC15024 | 1.24e5 | 1.02e5 | – | 4290 | 2576 |
| Cpr78E | DRSC11807 | 75754 | 88624 | – | 2595 | 2538 |
| gammaSnap1 | DRSC04686 | 1.49e5 | 65100 | – | 5716 | 2838 |
| ERR | DRSC10840 | 90172 | 59440 | – | 4116 | 2824 |
| nis | DRSC00290 | 67728 (active) | 65602 | – | 4544 | 4279 |
| Usp5 | DRSC08244 | 90800 | 56442 | – | 3191 | 4261 |
| CG6216 | DRSC10606 | 33504 | 84496 | 51581 | 7015 | 3680 |
| zetaCOP | DRSC11412 | 63691 (active) | – | – | 1282 | 10962 |
| CG32036 | DRSC10362 | 81131 | 45449 | – | 3709 | 1684 |
| lok | DRSC03567 | 89218 | 85637 | – | 3548 | 3864 |
| Aladin | DRSC18121 | 96854 | 74448 | – | 2505 | 1872 |
| CG34028 | DRSC17614 | 5.70e5 | 2.12e5 | – | 31811 | 4679 |
| CG7857 | DRSC10925 | 1.00e5 | – | – | 3703 | 2429 |
| CG12376 | DRSC06144 | 1.65e5 | 1.07e5 | – | 6739 | 4608 |
| CG43980 | DRSC11500 | 2.42e5 | – | – | 5559 | – |
| CG43980 | DRSC11646 | 1.73e5 | 2.04e5 | – | 5702 | 5319 |
| Hsp68 | DRSC16712 | 5.71e5 | 1.14e5 | – | 29844 | 3282 |
| Der-1 | DRSC00301 | 1.44e5 | 88738 | – | 5328 | 3265 |
| CG10013 | DRSC14175 | 1.23e5 | 72593 | – | 4864 | 2768 |
| CG1571 | DRSC18068 | 89131 | 2.23e5 | – | 3681 | 8573 |
| CG2162 | DRSC08557 | 74918 | 68048 | – | 2903 | 2519 |
| CG11200 | DRSC06060 | 87968 | 61044 | – | 3511 | 2661 |
| mthl10 | DRSC08504 | 80120 | 34880 | – | 2763 | 2624 |
| mthl10 | DRSC08505 | 1.31e5 | 60154 | – | 4939 | 4616 |
| Cdep | DRSC12028 | 2.48e5 | – | – | 5476 | – |
| Cdep | DRSC12220 | 1.66e5 | 90864 | – | 5697 | 3648 |
| Cdep | DRSC12291 | 74039 | 91153 | – | 2809 | 1352 |
| SK | DRSC17387 | 4.71e5 | 1.60e5 | – | 22828 | 2103 |
| SK | DRSC17751 | 97392 | 2.83e5 | – | 2198 | 11413 |
| SK | DRSC17887 | 72908 | 1.74e5 | – | 1376 | 7208 |
| SK | DRSC17888 | 60480 (active) | 1.32e5 | – | 854 | 4321 |
| SK | DRSC18353 | 92756 | 66041 | – | 2016 | 1588 |
